Experimental data as given in article PMC7075897.

T1: EcR (isoform A) fused to BioID2 through a 25 nm GS linker, marked with 3xFLAG (Drosophila melanogaster) (UniProt P34021)
T1 sequence: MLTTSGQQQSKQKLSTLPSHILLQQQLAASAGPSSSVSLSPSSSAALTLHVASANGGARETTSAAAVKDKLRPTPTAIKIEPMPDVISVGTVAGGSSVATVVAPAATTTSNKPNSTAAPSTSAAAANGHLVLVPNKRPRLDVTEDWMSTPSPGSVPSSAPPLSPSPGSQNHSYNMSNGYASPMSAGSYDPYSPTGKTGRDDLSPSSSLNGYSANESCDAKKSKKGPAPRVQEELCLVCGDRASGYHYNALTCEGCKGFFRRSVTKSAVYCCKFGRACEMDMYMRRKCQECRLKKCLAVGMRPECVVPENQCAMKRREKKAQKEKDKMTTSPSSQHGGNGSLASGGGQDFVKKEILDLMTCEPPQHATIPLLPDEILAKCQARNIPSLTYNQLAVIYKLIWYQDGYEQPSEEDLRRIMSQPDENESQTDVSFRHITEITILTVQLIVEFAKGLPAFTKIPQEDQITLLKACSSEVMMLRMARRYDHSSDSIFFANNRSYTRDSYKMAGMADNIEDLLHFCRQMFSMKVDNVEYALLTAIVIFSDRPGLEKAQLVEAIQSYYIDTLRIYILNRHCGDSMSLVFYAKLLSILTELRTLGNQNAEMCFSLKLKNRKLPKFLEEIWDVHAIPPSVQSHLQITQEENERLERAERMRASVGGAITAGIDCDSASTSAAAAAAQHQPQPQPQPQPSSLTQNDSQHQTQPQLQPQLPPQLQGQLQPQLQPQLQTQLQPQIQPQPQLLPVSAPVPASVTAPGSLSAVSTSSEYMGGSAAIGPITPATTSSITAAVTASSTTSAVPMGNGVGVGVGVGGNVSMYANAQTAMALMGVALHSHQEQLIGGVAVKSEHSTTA

T2: Usp fused to BioID2 through a 25 nm GS linker, marked with 3xFLAG (Drosophila melanogaster) (UniProt P20153)
T2 sequence: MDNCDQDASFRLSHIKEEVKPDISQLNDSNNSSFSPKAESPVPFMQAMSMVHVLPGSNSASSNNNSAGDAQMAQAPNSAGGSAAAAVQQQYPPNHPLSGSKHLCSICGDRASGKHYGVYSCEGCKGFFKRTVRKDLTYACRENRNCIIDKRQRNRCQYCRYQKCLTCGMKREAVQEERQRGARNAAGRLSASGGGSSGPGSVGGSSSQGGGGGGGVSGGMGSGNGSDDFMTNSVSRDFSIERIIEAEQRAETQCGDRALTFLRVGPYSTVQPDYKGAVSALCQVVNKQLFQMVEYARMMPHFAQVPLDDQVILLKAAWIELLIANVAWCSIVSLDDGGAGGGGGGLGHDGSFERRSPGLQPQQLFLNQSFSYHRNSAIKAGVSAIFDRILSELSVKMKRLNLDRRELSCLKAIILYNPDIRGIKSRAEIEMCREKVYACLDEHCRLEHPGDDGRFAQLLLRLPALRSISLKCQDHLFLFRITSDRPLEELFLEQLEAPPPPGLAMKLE

T3: Usp fused to APEX2 through a 25 nm GS linker, marked with 3xFLAG (Drosophila melanogaster) (UniProt P20153)
T3 sequence: T2 sequence

T4: EcR (isoform A) fused to APEX2 through a 25 nm GS linker, marked with 3xFLAG (Drosophila melanogaster) (UniProt P34021)
T4 sequence: T1 sequence

B1: Dp1 (protein, UniProt Q7KN75 1-1301)
chain: MQAAAVMEETNNATTIEQQPIALINGQEQVANEQQPSSPTSVATPTSTTSGGTGNATPAFSYDDLFPALPANTSAQSQSGASGSTLARVTSSQKTHIVHVPCKERKSTESEKFGEGESKRICQQITKETGAQIEIVSGKNQSLTFLIKGKQSELLDARRKILMGFSTQASRQVTVPREHFRVILGKGGQRLREIERVTATRINIPSQSDESEFITIAGTKEGIAQAEQEIRQLSAEQYKKSSDRITVPKVYHPFIVGPYSENLNKLQEETGARINVPPQQVQKDEIVISGEKDAVAAAKAKVEAIYKDMEKKCSTVSVEVAKPKHRYVIGPKGSTIAEILQLTGVSVEMPPNDSPSETITLRGPQVALGNALTVVYQKSNSVKSVEINAAHWIHKYVIGRKGANMKQLEEDCPNVNVNCLEDKIKLEGDPENVDRAVAYLSEIIKNYEENFTFEVMTVNPSYYKHIIGKAGANVNRLKDELKVNINIEEREGQNNIRIEGPKEGVRQAQLELQEKIDKLENEKSKDVIIDRRLHRSIIGAKGEKIREVKDRYRQVTITIPTPQENTDIVKLRGPKEDVDKCHKDLLKLVKEIQESSHIIEVPIFKQFHKFVIGKGGANIKKIRDETQTKIDLPAEGDTNEVIVITGKKENVLEAKERIQKIQNELSDIVTEEVQIPPKYYNSIIGTGGKLISSIMEECGGVSIKFPNSDSKSDKVTIRGPKDDVEKAKVQLLELANERQLASFTAEVRAKQQHHKFLIGKNGASIRKIRDATGARIIFPSNEDTDKEVITIIGKEESVKKAREQLEAIIKECDEVTEGEVSVDPKHHKHFVAKRGFILHRISEECGGVMISFPRVGINSDKVTIKGAKDCIEAARQRIEEIVADLEAQTTIEVVIPQRHHRTIMGARGFKVQQVTFEFDVQIKFPDRDATEPVEGLTNGGSGENGGENEGQEGEQEVEKEAEQEPVRQCDVIRITGRIEKCEAAKQALLDLIPIEEELSVPFDLHRTIIGPRGANVRQFMSKHDVHVELPPSELKSDVIKVCGTPARVAEAREALVKMIEDYEADRADRELRSFVLQVDVDTEFHSKLIGRHGAVINKLRADHDVIISLPKRDEPNDRIISITGYQANAEAARDAILEIVGDPETLHREVIEIDKRIHPHLIGQRRRTIRKIIEDNKVNIKFSADDDNPNSIFISGKIEDVENVKELLFGMAEDYERDYLDNVAIAPPTIGAFLTGQGSGSDAAGASENGFVIKDAPWEKQKQAKNLTAPNTQSQEDFPHFAAGGAPVASTPITSVWGPKN
B2: Uba2 (protein, UniProt Q7KJV6 1-700)
chain: MAAAINGVFPPTLQELVKKSKVLVVGAGGIGCEVLKNLVLSGFTDIEIIDLDTIDLSNLNRQFLFHREHVGKSKARVARESALSFNPDAKITAYHDSVTSTDYGVNFFKKFDLVLSALDNRAARNHVNRMCLNADVPLIESGTAGYNGQVELIKRGLTQCYECTPKDKQRSFPGCTIRNTPSEPIHCIVWAKHLFNQLFGESLEDEDISPDAADPDAKEKDGGDGNGEPKGDGKEKGEESKEEKEAKEDTANGNIMRINTRQWAKDSNYDAGKLFNKFFNEDITYLLRMSNLWKTRKAPVPVQWDTLLPEGSSGDQKDVAKQHHKVWSIEECAQVFANSLKELSANFLKLEGDDTLAWDKDDQPAMDFVAACANVRSHIFDIERKSRFEIKSMAGNIIPAIATTNAITAGISVMRAFKVLEAKWEQCKAVYARLRPNARNHFLVPDASLPGPNPNCHVCASDPAITLKIDTKRMRIKELRDEVLVKTLNMLNPDVTVQSNGSILISSEEGETECNDGKLLSELNIVDGVILKCDDFFQNYELSIIISHFDAERDENLFEVVADASQLKPKDEDQKEAVKDKEDEPKSAKKRSTNGEGDSKDDGPSTSKRSRPNEVVEEDDDDCLVIEEDEDQADVVVVATDKLSVQSPPKSGSKRKPCEVIEDEDITEILESSDDEPAGPTKCKRSRLDDSNPVAVISID

Experiments:
[1] = biological target: T1, EcR (isoform A) fused to BioID2 through a 25 nm GS linker, marked with 3xFLAG (Drosophila melanogaster); experiment: proximity labelling; BioID2 fused to EcR or Usp, stably expressed in S2 cells; biotin 50 nM, 20E or DMSO for 14 h; nuclear extract, Streptavidin-Agarose precipitation, LC-MS/MS
[2] = biological target: T2, Usp fused to BioID2 through a 25 nm GS linker, marked with 3xFLAG (Drosophila melanogaster); experiment: as above
[3] = biological target: T3, Usp fused to APEX2 through a 25 nm GS linker, marked with 3xFLAG (Drosophila melanogaster); experiment: proximity labelling; APEX2 fused to EcR or Usp, stably expressed in S2 cells; 20E or DMSO 1 h, biotin-phenol 30 min, 1 mM H2O2 5 min; nuclear extract, Streptavidin-Agarose precipitation, LC-MS/MS
[4] = biological target: T4, EcR (isoform A) fused to APEX2 through a 25 nm GS linker, marked with 3xFLAG (Drosophila melanogaster); experiment: as above

Binder	binding [1]	binding [2]	binding [3]	binding [4]
B1	binds	binds	–	–
B2	–	–	binds	binds

No constants are given. Whether binding was seen depends on the method and setting. In cells and extracts the contact can be indirect. A yes stands for co-enrichment or nearness to the bait. Other partners may have been found. Sequences can lack the tags named with a protein.
